For one molecule, binding results are on record in article PMC2243016.

In this assay the target is N-terminal CycG-region (GST fusion) (Drosophila melanogaster). Put plainly: pull-down; GST-CycG fusion proteins on beads, in vitro translated 35S-Corto, autoradiography; only the target purified.

No constants are given. Whether binding was seen depends on the method and setting. Binding seen in cells or lysates may run through a third protein. A result given as binding can be weak or reduced; the word gives no strength.

B1: In vitro translated Corto protein (35S-labelled) (protein, UniProt P41046 1-550)
chain: MTMAACYANYDMSSLSHGMSALSALQQQQQQQQQQHSQTQQQHHHQQQQQHMYHAAVAAHQQQLLQQQQQQQHHRHHHQPANTSSSSNSRHSHAAATQTQVAAAVANSRQQQQQQQQQQQQQQQQQTASSNSNAAPAPSPQKDYSIPLHVDCSVEYELPNQPKPPAGQRVEPLLMIHPCYFRKMESQRRSPFVNNMHATARAVSSSSLSSGAALGGGGSGAAVATAPSSSAARRGARAATSAQQQQQQQQRYQQQQQQLRQQHQQMSQMSQQAHYPQQQSSLVRQHQQQQQQQQQQQRASSNQSQRQSQSQSQSQSHAANSAAAAAAQASIAAAAAGQWDQLAALAARTALTPHHMLHPHSHYAAKGSGGGAGGGKRDAMISGSYGQTAVASGKLQQSQVQQQQPQQQQQHCLPPPPWDATSMLMDRSPMATVPSNYQAGPDTNPMRLYSATPTAGAASGGSASVGGGGAVSGAGATGAVNTATDKLSGKYRQYLRSQRMHPYAAAASLNLAAAAAAAGQTSFVPFSSAATAVAATPTFQHLPQISCYNV
modifications: 35S label
As to B1, the binding entry is reported as “binds”.
